Values are animals surviving of animals treated; these mice carried no tumour. Counts of survivors are from the toxicity check (mostly the fifth day) where no day follows; animals may have died later. Schedules are NCI's codes, read here as Q, the interval in days (D) or hours (H), X, the number of doses.
Test system: B6D2F1 mice, nontumored toxicity test, survival
Experiment: NCI In Vivo Anticancer Drug Screen. Data for tumor model Nontumored Animals (Toxicity Test) in B6D2F1 (BDF1) mice
Settings: vehicle: saline

## CCC1=C(C[C@H]2NCCc3cc(OC)c(OC)cc32)C[C@H]2c3cc(OC)c(OC)cc3CCN2C1
dose: 1.0 mg/kg/injection, schedule: Q03HX024 (ip)
  survivor count: 8 of 8
dose: 2.0 mg/kg/injection, schedule: Q03HX016 (ip)
  survivor count: 8 of 8
dose: 2.0 mg/kg/injection, schedule: Q03HX024 (ip)
  survivor count: 8 of 8
dose: 4.0 mg/kg/injection, schedule: Q01DX005 (ip)
  survivor count: 8 of 8
dose: 4.0 mg/kg/injection, schedule: Q01DX005 (sc)
  survivor count: 8 of 8
dose: 4.0 mg/kg/injection, schedule: Q01DX009 (ip)
  survivor count: 8 of 8
dose: 4.0 mg/kg/injection, schedule: Q03HX008 (ip)
  survivor count: 7 of 8
dose: 4.0 mg/kg/injection, schedule: Q03HX016 (ip)
  survivor count: 7 of 8
dose: 4.0 mg/kg/injection, schedule: Q03HX024 (ip)
  survivor count: 7 of 8
dose: 8.0 mg/kg/injection, schedule: Q01DX005 (ip)
  survivor count: 8 of 8
dose: 8.0 mg/kg/injection, schedule: Q01DX005 (oral)
  survivor count: 8 of 8
dose: 8.0 mg/kg/injection, schedule: Q01DX005 (sc)
  survivor count: 8 of 8
dose: 8.0 mg/kg/injection, schedule: Q01DX009 (ip)
  survivor count: 8 of 8
dose: 8.0 mg/kg/injection, schedule: Q03HX008 (ip)
  survivor count: 0 of 8
dose: 8.0 mg/kg/injection, schedule: Q03HX016 (ip)
  survivor count: 0 of 8
dose: 8.0 mg/kg/injection, schedule: Q03HX024 (ip)
  survivor count: 0 of 8
dose: 8.0 mg/kg/injection, schedule: Q04DX003 (ip)
  survivor count: 8 of 8
dose: 16.0 mg/kg/injection, schedule: Q01DX005 (ip)
  survivor count: 8 of 8
dose: 16.0 mg/kg/injection, schedule: Q01DX005 (oral)
  survivor count: 8 of 8
dose: 16.0 mg/kg/injection, schedule: Q01DX005 (sc)
  survivor count: 8 of 8
dose: 16.0 mg/kg/injection, schedule: Q01DX009 (ip)
  survivor count: 8 of 8
dose: 16.0 mg/kg/injection, schedule: Q03HX008 (ip)
  survivor count: 0 of 8
dose: 16.0 mg/kg/injection, schedule: Q03HX016 (ip)
  survivor count: 0 of 8
dose: 16.0 mg/kg/injection, schedule: Q03HX024 (ip)
  survivor count: 0 of 8
dose: 16.0 mg/kg/injection, schedule: Q04DX003 (ip)
  survivor count: 8 of 8
dose: 16.0 mg/kg/injection, schedule: Q08DX002 (ip)
  survivor count: 8 of 8
dose: 32.0 mg/kg/injection, schedule: Q01DX001 (ip)
  survivor count: 8 of 8
dose: 32.0 mg/kg/injection, schedule: Q01DX001 (sc)
  survivor count: 7 of 8
dose: 32.0 mg/kg/injection, schedule: Q01DX005 (ip)
  survivor count: 0 of 8
dose: 32.0 mg/kg/injection, schedule: Q01DX005 (oral)
  survivor count: 2 of 8
dose: 32.0 mg/kg/injection, schedule: Q01DX005 (sc)
  survivor count: 3 of 8
dose: 32.0 mg/kg/injection, schedule: Q01DX009 (ip)
  survivor count: 0 of 8
dose: 32.0 mg/kg/injection, schedule: Q03HX008 (ip)
  survivor count: 0 of 8
dose: 32.0 mg/kg/injection, schedule: Q03HX016 (ip)
  survivor count: 0 of 8
dose: 32.0 mg/kg/injection, schedule: Q04DX003 (ip)
  survivor count: 8 of 8
dose: 32.0 mg/kg/injection, schedule: Q08DX002 (ip)
  survivor count: 8 of 8
dose: 64.0 mg/kg/injection, schedule: Q01DX001 (ip)
  survivor count: 4 of 8
dose: 64.0 mg/kg/injection, schedule: Q01DX001 (oral)
  survivor count: 4 of 8
dose: 64.0 mg/kg/injection, schedule: Q01DX001 (sc)
  survivor count: 2 of 8
dose: 64.0 mg/kg/injection, schedule: Q01DX005 (ip)
  survivor count: 0 of 8
dose: 64.0 mg/kg/injection, schedule: Q01DX005 (oral)
  survivor count: 0 of 8
dose: 64.0 mg/kg/injection, schedule: Q01DX005 (sc)
  survivor count: 0 of 8
dose: 64.0 mg/kg/injection, schedule: Q04DX003 (ip)
  survivor count: 2 of 8
dose: 64.0 mg/kg/injection, schedule: Q08DX002 (ip)
  survivor count: 2 of 8
dose: 128.0 mg/kg/injection, schedule: Q01DX001 (ip)
  survivor count: 0 of 8
dose: 128.0 mg/kg/injection, schedule: Q01DX001 (oral)
  survivor count: 0 of 8
dose: 128.0 mg/kg/injection, schedule: Q01DX001 (sc)
  survivor count: 3 of 8
dose: 128.0 mg/kg/injection, schedule: Q01DX005 (oral)
  survivor count: 0 of 8
dose: 128.0 mg/kg/injection, schedule: Q04DX003 (ip)
  survivor count: 0 of 8
dose: 128.0 mg/kg/injection, schedule: Q08DX002 (ip)
  survivor count: 0 of 8
dose: 256.0 mg/kg/injection, schedule: Q01DX001 (ip)
  survivor count: 0 of 8
dose: 256.0 mg/kg/injection, schedule: Q01DX001 (oral)
  survivor count: 0 of 8
dose: 256.0 mg/kg/injection, schedule: Q01DX001 (sc)
  survivor count: 1 of 8
dose: 256.0 mg/kg/injection, schedule: Q08DX002 (ip)
  survivor count: 0 of 8
dose: 512.0 mg/kg/injection, schedule: Q01DX001 (oral)
  survivor count: 0 of 8
dose: 512.0 mg/kg/injection, schedule: Q01DX001 (sc)
  survivor count: 0 of 8
dose: 1024.0 mg/kg/injection, schedule: Q01DX001 (oral)
  survivor count: 0 of 8
